Values from PubChem BioAssay AID504804 (Drosophila RNAi Screening Center, 2011)
In all, the deposit lists about 19,000 reagents; shown is a random part of those that have a named target and a result. Over the whole deposit, 47 (0.25%) were called active. 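Signals are raw, not normalised; exact z-scores behind calls not deposited; actives needed confirmation, so some wells reaching 2 SD are inactive.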 Reagents against one gene are numbered here. Names joined by + are all predicted targets of the reagent.

- Assay: 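dsRNAs that improve Kc cell survival under doxorubicin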 (primary screen)
- Cells: Drosophila Kc cells
- Reagent: long dsRNA against Drosophila genes, 0.5 µg dsRNA per well
- Time to read-out: 96 h (48 h knock-down, then 48 h drug)
- Challenge: doxorubicin 5 µg/ml for 48 h, added 48 h after dsRNA
- Measurement: 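Luminescent ATP counts per replicate, not normalised, reflecting viable cells after 48 h dsRNA knock-down followed by 48 h of 5 µg/ml doxorubicin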
- Reading the numbers: raw ATP luminescence: higher = more viable cells, protection from doxorubicin
- Hit rule: 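Active when both duplicate wells lie at least 2 SD above the plate mean and protection is confirmed by rescreening and independent dsRNAs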

With knock-down of wa-cup (GeneID 40892) the results were raw ATP luminescence, replicate 1 = 60260; raw ATP luminescence, replicate 2 = 58113; inactive. CG8312 (GeneID 41163) showed raw ATP luminescence, replicate 1 = 64900; raw ATP luminescence, replicate 2 = 63837; inactive. With knock-down of CG14332 (GeneID 42098), the screen gave raw ATP luminescence, replicate 1 = 91330; raw ATP luminescence, replicate 2 = 70230; inactive. With knock-down of GstT2 (GeneID 246386), the screen gave raw ATP luminescence, replicate 1 = 42033; raw ATP luminescence, replicate 2 = 77183; inactive. Against CG7366 (GeneID 38918) the deposit lists raw ATP luminescence, replicate 1 = 2.55e5; raw ATP luminescence, replicate 2 = 2.35e5; inactive. With knock-down of ec (GeneID 31339) #1 the results were raw ATP luminescence, replicate 1 = 2.76e5; raw ATP luminescence, replicate 2 = 2.63e5; inactive.

ec (GeneID 31339) #2 scored raw ATP luminescence, replicate 1 = 2.47e5; raw ATP luminescence, replicate 2 = 2.59e5; inactive. Depletion of ec (GeneID 31339) #3 came out at: raw ATP luminescence, replicate 1 = 34430; raw ATP luminescence, replicate 2 = 41800; inactive. For CR18275 (GeneID 8674032), the entry reads raw ATP luminescence, replicate 1 = 48310; raw ATP luminescence, replicate 2 = 55430; inactive. For CG15914 (GeneID 32542) the deposit lists raw ATP luminescence, replicate 1 = 3.43e5; raw ATP luminescence, replicate 2 = 3.22e5; inactive. CG17572 (GeneID 35182) showed raw ATP luminescence, replicate 1 = 61127; raw ATP luminescence, replicate 2 = 55267; inactive.

Laid out differently: 2 of the entries above.
| target | dsRNA no. | raw ATP luminescence, replicate 1 | raw ATP luminescence, replicate 2 | outcome |
| --- | --- | --- | --- | --- |
| CG7366 (GeneID 38918) | 1 | 2.55e5 | 2.35e5 | inactive |
| ec (GeneID 31339) | 1 | 2.76e5 | 2.63e5 | inactive |

The list goes on.
For CG8229 + CG33199 the deposit lists raw ATP luminescence, replicate 1 = 82873; raw ATP luminescence, replicate 2 = 86537; inactive. Pi3K92E (GeneID 42446) scored raw ATP luminescence, replicate 1 = 37033; raw ATP luminescence, replicate 2 = 28887; inactive. After knock-down of CG13581 (GeneID 37911), the record shows raw ATP luminescence, replicate 1 = 51200; raw ATP luminescence, replicate 2 = 46767; inactive. Knock-down of Mtr4 (GeneID 48782) came out at: raw ATP luminescence, replicate 1 = 81340; raw ATP luminescence, replicate 2 = 60797; inactive. After knock-down of bou (GeneID 31644), the screen gave raw ATP luminescence, replicate 1 = 38030; raw ATP luminescence, replicate 2 = 48470; inactive. After knock-down of CG46298 (GeneID 36091) the results were raw ATP luminescence, replicate 1 = 48830; raw ATP luminescence, replicate 2 = 66667; inactive.

Against CG8389 (GeneID 36764), the values are raw ATP luminescence, replicate 1 = 61457; raw ATP luminescence, replicate 2 = 54827; inactive. CG12849 (GeneID 37971) gave raw ATP luminescence, replicate 1 = 43927; raw ATP luminescence, replicate 2 = 62870; inactive. After knock-down of CG5727 (GeneID 34356), the screen gave raw ATP luminescence, replicate 1 = 70340; raw ATP luminescence, replicate 2 = 59980; inactive. For CG13857 (GeneID 42627), the entry reads raw ATP luminescence, replicate 1 = 73640; raw ATP luminescence, replicate 2 = 61730; inactive. Against AstA-R2 (GeneID 43393), the entry reads raw ATP luminescence, replicate 1 = 65230; raw ATP luminescence, replicate 2 = 39120; inactive. Silencing of CG6431 (GeneID 34476) came out at: raw ATP luminescence, replicate 1 = 41960; raw ATP luminescence, replicate 2 = 69940; inactive.

After knock-down of Or59c (GeneID 37716), the record shows raw ATP luminescence, replicate 1 = 40137; raw ATP luminescence, replicate 2 = 52337; inactive. Rab9Db + Rab9D + Rab9E showed raw ATP luminescence, replicate 1 = 1.73e5; raw ATP luminescence, replicate 2 = 2.08e5; inactive. Knock-down of Mettl14 (GeneID 34138) gave: raw ATP luminescence, replicate 1 = 1.04e5; raw ATP luminescence, replicate 2 = 71043; inactive. Against CG11291 (GeneID 37541), the values are raw ATP luminescence, replicate 1 = 64583; raw ATP luminescence, replicate 2 = 37830; inactive. Against wech (GeneID 44653), the values are raw ATP luminescence, replicate 1 = 73430; raw ATP luminescence, replicate 2 = 40377; inactive.
